From the supplement of paper PMC4683952
This is one part of the list. No stated cut-off is given here; in the data, active = 2 or more and inactive = the rest. Most values lie within the scatter of the assay; repeated measurements hardly agree.

What follows are compounds tested on Lgr5 (MarsCy1-Lgr5-EGFP, U2OS) (assay: cell-surface Lgr5 expression (SCi1 fluorescence, background-subtracted) relative to WT DMSO (fold of DMSO control); higher = more Lgr5 at the plasma membrane). Settings: U2OS MarsCy1-Lgr5-EGFP stable; treatment time: overnight; library: ActiProbe-5K (TimTec); 25 µM.
With `Clc1cc2nonc2c2nonc12` the “cell-surface Lgr5 expression” value was inactive: 1.3.
For `CCCC[n+]1cc([NH-])on1.Cl`, the “cell-surface Lgr5 expression” value was inactive: 1.04.
For `O=[N+]([O-])c1ccc(N2CCCC2)c2ncccc12`, the “cell-surface Lgr5 expression” value was inactive: 1.36.
`Fc1ccc2c(C3CCNCC3)noc2c1` was tested, and the “cell-surface Lgr5 expression” value was inactive: 0.916.
In the case of `Nc1n[nH]c(Cc2nc(N)n[nH]2)n1`, the “cell-surface Lgr5 expression” value was inactive: 1.53.
In the case of `C/C(=C/c1ccc2c(c1)OCO2)[N+](=O)[O-]`, the “cell-surface Lgr5 expression” value was inactive: 0.222.
`O=[N+]([O-])c1ccc(N2CCNCC2)c2ncccc12` was tested, and the “cell-surface Lgr5 expression” value was inactive: 1.33.
`CC12CC(=O)C3C(CCC4=CC(=O)CCC43C)C1CCC2=O` (stereo not given) was tested, and the “cell-surface Lgr5 expression” value was inactive: 1.22.
In the case of `Cl.Nc1cc2nc3ccccc3nc2cc1N`, the “cell-surface Lgr5 expression” value was inactive: 1.47.
In the case of `NNC(=O)c1nonc1N`, the “cell-surface Lgr5 expression” value was inactive: 1.15.
In the case of `c1(c(cc(cc1OC)/C=C(\C#N)C#N)OC)OC`, the “cell-surface Lgr5 expression” value was inactive: 1.05.
`N#C[C@@H]1CCC[C@H]2OC[C@@H](c3ccccc3)N12` was tested, and the “cell-surface Lgr5 expression” value was inactive: 0.85.
In the case of `CN1CCC2(CC1)C(C#N)=C([S-])NC(=O)C2C#N` (stereo not given), the “cell-surface Lgr5 expression” value was inactive: 1.14.
With `CS(=O)(=O)NCCNC(=O)c1nonc1N` the “cell-surface Lgr5 expression” value was inactive: 1.
With `NCCC(=O)OCC1CCCN2CCCCC12` (stereo not given) the “cell-surface Lgr5 expression” value was inactive: 0.901.
With `Nc1nc2nonc2n2nnnc12` the “cell-surface Lgr5 expression” value was inactive: 1.39.
For `Oc1ccc(Br)cc1Cl`, the “cell-surface Lgr5 expression” value was inactive: 1.13.
With `O=c1[nH]c2nonc2[nH]c1=O` the “cell-surface Lgr5 expression” value was inactive: 1.14.
With `Cc1oc2ccccc2c1-c1ccc2ccccc2n1.[O-][Cl+3]([O-])([O-])O` the “cell-surface Lgr5 expression” value was inactive: 1.13.
In the case of `Cc1cc(C=O)c(C)n1C1CCCCC1`, the “cell-surface Lgr5 expression” value was inactive: 1.24.
In the case of `S=C(SSC(=S)N1CCCCC1)N1CCCCC1`, the “cell-surface Lgr5 expression” value was inactive: 1.06.
In the case of `O=C(/N=c1\[cH-][n+](C23CC4CC(CC(C4)C2)C3)no1)Nc1ccccc1`, the “cell-surface Lgr5 expression” value was inactive: 1.22.
`Clc1ccc(Cl)c2c1N[C@@H](c1cccnc1)[C@@H]1CC=C[C@@H]21` was tested, and the “cell-surface Lgr5 expression” value was inactive: 1.2.
For `Nc1nc(N)nc(N)n1`, the “cell-surface Lgr5 expression” value was inactive: 1.02.
`FC(F)(F)c1ccccc1C1NCc2ccccc2-n2cccc21` (stereo not given) was tested, and the “cell-surface Lgr5 expression” value was inactive: 1.17.
In the case of `COCCCNC1CCN(C)CC1`, the “cell-surface Lgr5 expression” value was inactive: 1.15.
`Nc1nonc1NC(=O)COC1CN2CCC1CC2` (stereo not given) was tested, and the “cell-surface Lgr5 expression” value was inactive: 1.02.
`[Na][O]CC1CCCN2CCCCC12` (stereo not given) was tested, and the “cell-surface Lgr5 expression” value was inactive: 1.15.
`NCCSc1c[nH]c2ccccc12` was tested, and the “cell-surface Lgr5 expression” value was inactive: 1.17.
`c1(sc(C)cc1)/C=C(/C#N)C#N` was tested, and the “cell-surface Lgr5 expression” value was inactive: 1.06.
`CN1CCC2(CC1)C(C#N)=C(N)NC(S)=C2C#N` was tested, and the “cell-surface Lgr5 expression” value was inactive: 0.995.
With `Cc1n[nH]c([N+](=O)[O-])c1[N+](=O)[O-]` the “cell-surface Lgr5 expression” value was inactive: 1.41.
With `C1CCC2NC3CCCCC3NC2C1` (stereo not given) the “cell-surface Lgr5 expression” value was inactive: 0.954.
`CN1CCc2c(c(N3CCCCC3)nc3[nH]nc(N)c23)C1` was tested, and the “cell-surface Lgr5 expression” value was inactive: 1.11.
With `N=C([NH3+])NC(=N)Nn1cnnc1.[Cl-]` the “cell-surface Lgr5 expression” value was inactive: 1.29.
With `COc1ccc(/C(C)=N/NC(=O)CSC2c3ccccc3-c3ccccc32)cc1OC` the “cell-surface Lgr5 expression” value was inactive: 1.96.
With `Fc1cc(C2NCc3ccccc3-n3cccc32)cc(F)c1F` (stereo not given) the “cell-surface Lgr5 expression” value was inactive: 1.16.
In the case of `Br.NCCc1cc(O)c(O)cc1O`, the “cell-surface Lgr5 expression” value was inactive: 0.964.
In the case of `O=[N+]([O-])c1ccc(Cl)c2nonc12`, the “cell-surface Lgr5 expression” value was inactive: 1.53.
For `Nc1nn2c(O)c(N)c(=O)[nH]c2c1[N+](=O)[O-]`, the “cell-surface Lgr5 expression” value was inactive: 1.26.
`CN(C)c1ccc(N(C)C)cc1.O` was tested, and the “cell-surface Lgr5 expression” value was inactive: 1.4.
In the case of `O=c1[nH]c2cc(Cl)ccc2n1C1CCNCC1`, the “cell-surface Lgr5 expression” value was inactive: 1.02.
`NC(=O)c1n[nH]cc1[N+](=O)[O-]` was tested, and the “cell-surface Lgr5 expression” value was inactive: 1.2.
`CN1CCC(N)C2CCCCC21` (stereo not given) was tested, and the “cell-surface Lgr5 expression” value was inactive: 1.19.
In the case of `O.O.O=C(O)C1N=C2CC=CCC2N1` (stereo not given), the “cell-surface Lgr5 expression” value was inactive: 1.18.
`C1CCC(NC2CCCCC2)CC1.Cl` was tested, and the “cell-surface Lgr5 expression” value was inactive: 1.29.
With `COc1cc2c(cc1OC)-c1c(OC)c(OC)c(N)c3c1[C@H](C2)N(C)CC3` the “cell-surface Lgr5 expression” value was inactive: 1.04.
For `O=[N+]([O-])c1ccc(N2CCNCC2)cc1NC1CC1`, the “cell-surface Lgr5 expression” value was inactive: 1.19.
For `Fc1ccccc1C1NCCC2N=CNC21` (stereo not given), the “cell-surface Lgr5 expression” value was inactive: 1.31.
`Cc1cc(C=O)c(C)n1C(C)C` was tested, and the “cell-surface Lgr5 expression” value was inactive: 1.24.
`c1ccc(N2CCNCC2)nc1` was tested, and the “cell-surface Lgr5 expression” value was inactive: 1.29.
With `COC(=O)Nc1no[n+]([O-])c1NC(=O)OC` the “cell-surface Lgr5 expression” value was inactive: 1.46.
For `Nc1ccc(OC(F)(F)Cl)cc1`, the “cell-surface Lgr5 expression” value was inactive: 1.07.
`Nc1nnc(CCN2CCCCC2)s1` was tested, and the “cell-surface Lgr5 expression” value was inactive: 1.2.
With `c1ccc2c(c1)CNC(c1ccc3c(c1)OCO3)c1cccn1-2` (stereo not given) the “cell-surface Lgr5 expression” value was inactive: 1.12.
With `Cl.c1ccc(Oc2ccc3[nH]cc(CCN4CC4)c3c2)cc1` the “cell-surface Lgr5 expression” value was inactive: 1.2.
With `C1(/C(NC(=S)NC1=O)=O)=C/c1c(n(CCOC)c(c1)C)C` the “cell-surface Lgr5 expression” value was inactive: 0.759.
In the case of `OCCCCNC1CCCCC1`, the “cell-surface Lgr5 expression” value was inactive: 1.13.
`CC1(C)CN=C(Nc2ccc(OC(F)(F)F)cc2)S1` was tested, and the “cell-surface Lgr5 expression” value was inactive: 1.09.
In the case of `CN1C(=O)N(C)C2C1N(C)C(=O)N2C` (stereo not given), the “cell-surface Lgr5 expression” value was inactive: 1.16.
In the case of `Nc1n[nH]c(SCC(=O)Nc2nonc2N)n1`, the “cell-surface Lgr5 expression” value was inactive: 1.11.
In the case of `O=[N+]([O-])/C=C/c1ccccc1C(F)(F)F`, the “cell-surface Lgr5 expression” value was inactive: 1.13.
In the case of `Nc1ncnc(N)n1`, the “cell-surface Lgr5 expression” value was inactive: 0.98.
For `Nc1nonc1-c1nnn[nH]1`, the “cell-surface Lgr5 expression” value was inactive: 1.04.
With `CN1CCc2[nH]c(=S)c(C#N)cc2C1` the “cell-surface Lgr5 expression” value was inactive: 1.26.
In the case of `CC(=O)C12N[C@@H]1CC1C3CC=C4C[C@@H](O)CCC4(C)C3CCC12C` (stereo not given in full), the “cell-surface Lgr5 expression” value was inactive: 1.35.
With `CNC(=O)N(C)c1nnc(C(C)(C)C)s1` the “cell-surface Lgr5 expression” value was inactive: 1.12.
In the case of `O=[N+]([O-])c1cnn(CCc2nn[nH]n2)c1`, the “cell-surface Lgr5 expression” value was inactive: 0.999.
With `Cl.[NH-]c1c[n+](C2CCCCC2)no1` the “cell-surface Lgr5 expression” value was inactive: 1.23.
In the case of `c1(cn(C)c2c1cccc2)/C=C(/C#N)C#N`, the “cell-surface Lgr5 expression” value was inactive: 1.37.
In the case of `CC1(C)C(C(=O)Nc2nccs2)C1(C)C`, the “cell-surface Lgr5 expression” value was inactive: 0.97.
In the case of `Fc1ccccc1C1NCc2ccccc2-n2cccc21` (stereo not given), the “cell-surface Lgr5 expression” value was inactive: 1.24.
For `N#C/C(=C\c1ccc[se]1)C(N)=S`, the “cell-surface Lgr5 expression” value was inactive: 1.31.
With `O=C(NC(=S)N1C[C@H]2C[C@@H](C1)c1cccc(=O)n1C2)c1cccs1` the “cell-surface Lgr5 expression” value was inactive: 0.675.
For `Cc1cc(N=C=S)nn1C`, the “cell-surface Lgr5 expression” value was inactive: 1.21.
